Laboratory results: PubChem BioAssay AID602196 (INSERM, 2012)
Test: 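Genes whose knock-down alters cisplatin killing of lung cancer cells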. Cells: human A549 lung cancer cells. Knock-down reagent: siRNA pair against human genes. Duration: 48 h transfection before cisplatin; time from cisplatin to read-out not stated. Treatment: cisplatin at a dose killing half of control-siRNA cells; exact dose and duration not given. Detection: 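Shift in cisplatin death relative to control siRNA, from -50 (all cells die) to +50 (no cells die); siRNAs harmful on their own scored 0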. Scale: two-siRNA summed score (-2 to +2): higher = both siRNAs protect from cisplatin killing; -2 means both sensitise; mean protection from cisplatin (shift in death): higher = protection from cisplatin killing. Call rule: 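Each siRNA scores 0 if harmful alone by LDH or WST-1, otherwise +1 if it reduces and -1 if it increases cisplatin killing; a gene is active when both siRNAs agree (sum +2 or -2)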. Meaning of the calls: active = both siRNAs shift cisplatin killing the same way; inactive = no consistent shift, or siRNA harmful alone.
The deposit covers about 23,000 reagents; shown is a random part of them. 455 of all reagents (2%) count as active. 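Active includes both protection and sensitisation; some change values fall well beyond the stated -50 to +50 range.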 Entries without a mark were called inactive. Further read-outs or replicates are left out here. Reagent sequences are not shown. Not stated in the record: the amount of reagent.

For PTCD3 [SID131507059] the deposit lists two-siRNA summed score (-2 to +2) = 0; mean protection from cisplatin (shift in death) (%) = -0.6.
RETNLB [SID131500364] gave two-siRNA summed score (-2 to +2) = -2 (active); mean protection from cisplatin (shift in death) (%) = -17.9.
Silencing of ABCG1 [SID131511206] resulted in: two-siRNA summed score (-2 to +2) = 0; mean protection from cisplatin (shift in death) (%) = 4.1.
With knock-down of SHANK2 [SID131515981] the results were two-siRNA summed score (-2 to +2) = 0; mean protection from cisplatin (shift in death) (%) = 10.
Against LRRC37A6P [SID131522809], the entry reads two-siRNA summed score (-2 to +2) = 1; mean protection from cisplatin (shift in death) (%) = 25.2.
Against LOC401518 [SID131514489], the values are two-siRNA summed score (-2 to +2) = 0; mean protection from cisplatin (shift in death) (%) = 7.9.
Silencing of DDX51 [SID131511211] resulted in: two-siRNA summed score (-2 to +2) = 0; mean protection from cisplatin (shift in death) (%) = 4.1.
After knock-down of FNTA [SID131511492], the record shows two-siRNA summed score (-2 to +2) = 0; mean protection from cisplatin (shift in death) (%) = 4.4.
Silencing of EPX [SID131520077] resulted in: two-siRNA summed score (-2 to +2) = 1; mean protection from cisplatin (shift in death) (%) = 8.6.
After knock-down of KMT5C [SID131517515] the results were two-siRNA summed score (-2 to +2) = 0; mean protection from cisplatin (shift in death) (%) = 13.7.
Against DHH [SID131517521], the values are two-siRNA summed score (-2 to +2) = 0; mean protection from cisplatin (shift in death) (%) = 13.7.
Against SLC35B2 [SID131502345], the values are two-siRNA summed score (-2 to +2) = -1; mean protection from cisplatin (shift in death) (%) = -3.3.
Knock-down of CRACR2A [SID131510220] resulted in: two-siRNA summed score (-2 to +2) = 0; mean protection from cisplatin (shift in death) (%) = 3.

Part of the list above in another layout.
| Target gene | PubChem SID | two-siRNA summed score (-2 to +2) | mean protection from cisplatin (shift in death) (%) |
| --- | --- | --- | --- |
| RETNLB | SID131500364 | -2 (active) | -17.9 |
| ABCG1 | SID131511206 | 0 | 4.1 |

More records follow:
Knock-down of IRF4 [SID131501087] resulted in: two-siRNA summed score (-2 to +2) = -1; mean protection from cisplatin (shift in death) (%) = -12.5.
Depletion of SYT3 [SID131520593] came out at: two-siRNA summed score (-2 to +2) = 1; mean protection from cisplatin (shift in death) (%) = 10.4.
With knock-down of TMED9 [SID131509039], the record shows two-siRNA summed score (-2 to +2) = 0; mean protection from cisplatin (shift in death) (%) = 1.8.
With knock-down of SLC33A2 [SID131502155] the results were two-siRNA summed score (-2 to +2) = -1; mean protection from cisplatin (shift in death) (%) = -4.9.
With knock-down of SEL1L2 [SID131502545] the results were two-siRNA summed score (-2 to +2) = -1; mean protection from cisplatin (shift in death) (%) = -1.2.
For OR4C16 [SID131519963] the deposit lists two-siRNA summed score (-2 to +2) = 1; mean protection from cisplatin (shift in death) (%) = 8.2.
Silencing of HNRNPUL1 [SID131519112] gave: two-siRNA summed score (-2 to +2) = 1; mean protection from cisplatin (shift in death) (%) = 2.6.
Knock-down of LOC284898 [SID131522615] resulted in: two-siRNA summed score (-2 to +2) = 1; mean protection from cisplatin (shift in death) (%) = 20.6.
After knock-down of EIF4B [SID131519115], the screen gave two-siRNA summed score (-2 to +2) = 1; mean protection from cisplatin (shift in death) (%) = 2.6.
Knock-down of MSMO1 [SID131507469] gave: two-siRNA summed score (-2 to +2) = 0; mean protection from cisplatin (shift in death) (%) = -0.1.
After knock-down of FTH1P16 [SID131514194] the results were two-siRNA summed score (-2 to +2) = 0; mean protection from cisplatin (shift in death) (%) = 7.5.
Depletion of LOC388589 [SID131506495] gave: two-siRNA summed score (-2 to +2) = 0; mean protection from cisplatin (shift in death) (%) = -1.4.
After knock-down of TMEM37 [SID131514308], the record shows two-siRNA summed score (-2 to +2) = 0; mean protection from cisplatin (shift in death) (%) = 7.6.
After knock-down of PDE6C [SID131505946], the record shows two-siRNA summed score (-2 to +2) = 0; mean protection from cisplatin (shift in death) (%) = -2.3.
C2CD4A [SID131508414] gave two-siRNA summed score (-2 to +2) = 0; mean protection from cisplatin (shift in death) (%) = 1.
Silencing of FGFBP3 [SID131505959] resulted in: two-siRNA summed score (-2 to +2) = 0; mean protection from cisplatin (shift in death) (%) = -2.3.
Against SYN2 [SID131503277], the values are two-siRNA summed score (-2 to +2) = 0; mean protection from cisplatin (shift in death) (%) = -11.4.
Depletion of SMIM10L2A [SID131517571] gave: two-siRNA summed score (-2 to +2) = 0; mean protection from cisplatin (shift in death) (%) = 13.9.
